Measured values: the supplement of paper PMC10849652
This is one part of the list.

The chains behind the UniProt entries cited, without tags or fusion partners. Where a name states a change or a piece, a line headed by the entry shows the natural chain unless it says otherwise.
UniProt P48147: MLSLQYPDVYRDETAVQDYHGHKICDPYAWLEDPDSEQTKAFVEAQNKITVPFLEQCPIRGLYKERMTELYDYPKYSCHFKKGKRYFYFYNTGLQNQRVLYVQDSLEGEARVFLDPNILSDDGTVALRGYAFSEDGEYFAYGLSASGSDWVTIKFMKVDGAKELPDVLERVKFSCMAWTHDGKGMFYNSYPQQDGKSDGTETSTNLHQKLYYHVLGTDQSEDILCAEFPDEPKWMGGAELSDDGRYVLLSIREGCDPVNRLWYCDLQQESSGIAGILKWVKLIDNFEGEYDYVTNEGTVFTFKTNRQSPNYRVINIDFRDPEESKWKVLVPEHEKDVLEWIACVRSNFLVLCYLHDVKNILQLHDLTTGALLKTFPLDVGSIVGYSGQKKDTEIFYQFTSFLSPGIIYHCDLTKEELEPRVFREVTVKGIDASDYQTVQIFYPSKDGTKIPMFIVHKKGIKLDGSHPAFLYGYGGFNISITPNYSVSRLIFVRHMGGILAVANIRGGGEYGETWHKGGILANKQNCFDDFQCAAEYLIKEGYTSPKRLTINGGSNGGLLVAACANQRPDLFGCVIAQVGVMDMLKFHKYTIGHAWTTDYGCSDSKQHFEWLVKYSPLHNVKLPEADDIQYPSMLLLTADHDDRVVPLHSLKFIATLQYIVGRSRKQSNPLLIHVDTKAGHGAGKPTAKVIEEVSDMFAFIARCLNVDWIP
UniProt Q9UMR5: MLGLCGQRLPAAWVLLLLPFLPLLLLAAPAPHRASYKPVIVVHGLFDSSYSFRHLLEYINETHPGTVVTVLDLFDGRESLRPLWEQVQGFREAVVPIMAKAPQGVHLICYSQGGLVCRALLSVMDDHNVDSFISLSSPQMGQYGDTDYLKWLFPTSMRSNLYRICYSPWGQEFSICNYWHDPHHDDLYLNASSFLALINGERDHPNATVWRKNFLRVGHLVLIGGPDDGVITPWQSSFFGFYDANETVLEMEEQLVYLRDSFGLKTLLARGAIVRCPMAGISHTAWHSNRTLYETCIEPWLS
UniProt Q13131: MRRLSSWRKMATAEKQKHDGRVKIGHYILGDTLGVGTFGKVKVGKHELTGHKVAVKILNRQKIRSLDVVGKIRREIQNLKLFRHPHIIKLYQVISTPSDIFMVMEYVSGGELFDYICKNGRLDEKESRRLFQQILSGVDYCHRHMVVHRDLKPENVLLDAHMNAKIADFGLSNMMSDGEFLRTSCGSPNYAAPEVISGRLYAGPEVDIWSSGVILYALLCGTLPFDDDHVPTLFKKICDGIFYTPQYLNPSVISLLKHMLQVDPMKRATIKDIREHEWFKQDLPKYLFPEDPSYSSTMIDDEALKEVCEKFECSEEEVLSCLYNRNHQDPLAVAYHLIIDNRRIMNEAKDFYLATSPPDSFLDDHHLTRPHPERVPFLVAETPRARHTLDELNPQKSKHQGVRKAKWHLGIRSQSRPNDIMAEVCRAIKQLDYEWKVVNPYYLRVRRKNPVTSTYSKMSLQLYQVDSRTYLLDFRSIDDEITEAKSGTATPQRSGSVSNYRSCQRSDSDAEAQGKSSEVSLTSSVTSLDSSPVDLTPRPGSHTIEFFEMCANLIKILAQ
UniProt Q13362, whole entry, looked up: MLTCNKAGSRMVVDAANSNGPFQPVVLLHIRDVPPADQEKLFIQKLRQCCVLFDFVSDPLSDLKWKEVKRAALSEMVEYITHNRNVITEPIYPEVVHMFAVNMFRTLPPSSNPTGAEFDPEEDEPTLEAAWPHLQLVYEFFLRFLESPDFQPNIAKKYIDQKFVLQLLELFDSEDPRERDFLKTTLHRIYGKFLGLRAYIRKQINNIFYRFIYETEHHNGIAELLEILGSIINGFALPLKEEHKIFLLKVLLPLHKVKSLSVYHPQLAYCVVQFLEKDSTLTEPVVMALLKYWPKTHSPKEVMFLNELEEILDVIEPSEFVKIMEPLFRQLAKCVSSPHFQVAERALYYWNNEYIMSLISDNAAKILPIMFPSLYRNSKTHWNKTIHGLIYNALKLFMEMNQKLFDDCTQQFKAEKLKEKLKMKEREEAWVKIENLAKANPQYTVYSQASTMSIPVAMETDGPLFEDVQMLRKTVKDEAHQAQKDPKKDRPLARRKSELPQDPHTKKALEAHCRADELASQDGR
UniProt O43314: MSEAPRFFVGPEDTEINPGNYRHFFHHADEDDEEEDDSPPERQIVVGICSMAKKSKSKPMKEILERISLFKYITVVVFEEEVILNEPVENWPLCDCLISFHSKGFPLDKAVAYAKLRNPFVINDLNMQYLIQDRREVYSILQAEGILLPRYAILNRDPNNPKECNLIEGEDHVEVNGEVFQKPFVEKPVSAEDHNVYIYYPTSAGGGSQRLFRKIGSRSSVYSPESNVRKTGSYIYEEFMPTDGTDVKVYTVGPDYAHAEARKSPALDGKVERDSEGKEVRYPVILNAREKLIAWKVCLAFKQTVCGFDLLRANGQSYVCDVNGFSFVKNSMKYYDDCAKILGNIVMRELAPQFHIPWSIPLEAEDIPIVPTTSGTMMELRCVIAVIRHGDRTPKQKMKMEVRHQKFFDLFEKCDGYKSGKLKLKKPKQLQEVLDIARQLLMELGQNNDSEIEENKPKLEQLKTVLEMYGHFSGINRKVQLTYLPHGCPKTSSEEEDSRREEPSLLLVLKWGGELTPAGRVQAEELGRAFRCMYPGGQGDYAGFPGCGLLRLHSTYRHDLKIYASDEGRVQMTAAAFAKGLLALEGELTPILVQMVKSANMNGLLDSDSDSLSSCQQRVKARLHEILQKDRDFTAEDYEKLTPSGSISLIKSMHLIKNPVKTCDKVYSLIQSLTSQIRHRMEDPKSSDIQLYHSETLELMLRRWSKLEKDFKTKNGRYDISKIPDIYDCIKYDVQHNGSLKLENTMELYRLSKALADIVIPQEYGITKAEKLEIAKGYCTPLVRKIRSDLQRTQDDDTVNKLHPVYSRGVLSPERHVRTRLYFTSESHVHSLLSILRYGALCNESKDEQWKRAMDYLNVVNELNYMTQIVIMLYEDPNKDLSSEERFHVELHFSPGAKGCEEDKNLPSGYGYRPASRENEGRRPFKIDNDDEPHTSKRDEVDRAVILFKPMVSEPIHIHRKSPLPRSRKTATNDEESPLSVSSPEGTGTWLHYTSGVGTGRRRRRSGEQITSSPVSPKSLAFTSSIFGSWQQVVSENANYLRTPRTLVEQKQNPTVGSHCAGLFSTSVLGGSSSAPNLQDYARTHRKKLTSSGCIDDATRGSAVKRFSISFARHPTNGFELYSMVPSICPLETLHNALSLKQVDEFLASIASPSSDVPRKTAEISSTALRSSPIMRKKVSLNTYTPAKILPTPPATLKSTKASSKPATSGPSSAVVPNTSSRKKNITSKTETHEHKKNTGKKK
UniProt P63098, whole entry, looked up: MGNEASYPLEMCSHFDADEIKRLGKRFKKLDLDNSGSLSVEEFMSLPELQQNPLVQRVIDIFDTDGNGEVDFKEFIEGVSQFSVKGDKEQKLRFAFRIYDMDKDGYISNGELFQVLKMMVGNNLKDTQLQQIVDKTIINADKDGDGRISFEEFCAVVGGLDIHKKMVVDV
UniProt P30041: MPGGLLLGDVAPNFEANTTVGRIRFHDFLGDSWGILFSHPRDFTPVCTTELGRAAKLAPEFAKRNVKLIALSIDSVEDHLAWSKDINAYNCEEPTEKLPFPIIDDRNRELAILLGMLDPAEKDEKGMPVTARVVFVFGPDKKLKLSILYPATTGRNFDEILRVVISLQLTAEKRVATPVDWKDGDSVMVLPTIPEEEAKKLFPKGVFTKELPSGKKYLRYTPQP
UniProt O15355: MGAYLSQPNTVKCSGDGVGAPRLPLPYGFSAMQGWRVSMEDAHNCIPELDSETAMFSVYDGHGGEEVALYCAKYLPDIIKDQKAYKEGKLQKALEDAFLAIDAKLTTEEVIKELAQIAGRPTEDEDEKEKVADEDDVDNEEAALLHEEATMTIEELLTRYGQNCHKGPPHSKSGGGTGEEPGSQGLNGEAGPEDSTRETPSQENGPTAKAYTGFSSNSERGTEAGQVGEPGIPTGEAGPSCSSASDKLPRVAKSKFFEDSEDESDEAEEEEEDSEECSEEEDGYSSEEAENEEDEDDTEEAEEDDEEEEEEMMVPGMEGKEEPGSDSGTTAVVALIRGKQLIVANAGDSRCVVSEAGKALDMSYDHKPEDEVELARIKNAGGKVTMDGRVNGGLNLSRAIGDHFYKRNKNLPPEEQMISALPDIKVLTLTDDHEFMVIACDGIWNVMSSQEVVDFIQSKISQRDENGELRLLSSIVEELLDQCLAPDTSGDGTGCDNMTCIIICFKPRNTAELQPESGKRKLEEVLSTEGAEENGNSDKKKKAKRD
UniProt P30405: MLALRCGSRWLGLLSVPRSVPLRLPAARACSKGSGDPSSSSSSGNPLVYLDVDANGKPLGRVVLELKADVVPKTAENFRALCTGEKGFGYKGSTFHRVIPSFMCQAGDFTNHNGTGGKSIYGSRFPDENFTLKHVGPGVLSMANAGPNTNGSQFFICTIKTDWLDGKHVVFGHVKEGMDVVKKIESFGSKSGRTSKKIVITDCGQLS
UniProt Q8NAV1: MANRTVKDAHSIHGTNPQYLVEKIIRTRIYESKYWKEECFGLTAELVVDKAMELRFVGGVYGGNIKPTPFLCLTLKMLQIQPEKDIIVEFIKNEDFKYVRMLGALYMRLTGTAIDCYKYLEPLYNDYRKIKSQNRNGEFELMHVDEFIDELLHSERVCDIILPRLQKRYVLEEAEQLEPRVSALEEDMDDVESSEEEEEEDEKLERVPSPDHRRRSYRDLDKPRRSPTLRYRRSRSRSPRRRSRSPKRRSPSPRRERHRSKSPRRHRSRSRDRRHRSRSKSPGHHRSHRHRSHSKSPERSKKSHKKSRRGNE
UniProt P48454, whole entry, looked up: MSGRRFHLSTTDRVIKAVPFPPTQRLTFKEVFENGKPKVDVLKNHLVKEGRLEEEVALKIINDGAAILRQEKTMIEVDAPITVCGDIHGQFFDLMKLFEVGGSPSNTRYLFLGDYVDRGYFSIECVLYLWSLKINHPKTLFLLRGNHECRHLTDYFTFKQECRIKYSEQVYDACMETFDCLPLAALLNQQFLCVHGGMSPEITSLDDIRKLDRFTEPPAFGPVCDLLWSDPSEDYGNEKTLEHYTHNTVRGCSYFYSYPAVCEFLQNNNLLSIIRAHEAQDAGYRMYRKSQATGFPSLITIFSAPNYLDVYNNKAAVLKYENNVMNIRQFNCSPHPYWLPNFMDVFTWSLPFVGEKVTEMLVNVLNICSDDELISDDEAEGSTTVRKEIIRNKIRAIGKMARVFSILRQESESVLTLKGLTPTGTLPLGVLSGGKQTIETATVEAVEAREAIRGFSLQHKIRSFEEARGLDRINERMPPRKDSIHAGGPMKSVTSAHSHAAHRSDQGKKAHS
UniProt O60678: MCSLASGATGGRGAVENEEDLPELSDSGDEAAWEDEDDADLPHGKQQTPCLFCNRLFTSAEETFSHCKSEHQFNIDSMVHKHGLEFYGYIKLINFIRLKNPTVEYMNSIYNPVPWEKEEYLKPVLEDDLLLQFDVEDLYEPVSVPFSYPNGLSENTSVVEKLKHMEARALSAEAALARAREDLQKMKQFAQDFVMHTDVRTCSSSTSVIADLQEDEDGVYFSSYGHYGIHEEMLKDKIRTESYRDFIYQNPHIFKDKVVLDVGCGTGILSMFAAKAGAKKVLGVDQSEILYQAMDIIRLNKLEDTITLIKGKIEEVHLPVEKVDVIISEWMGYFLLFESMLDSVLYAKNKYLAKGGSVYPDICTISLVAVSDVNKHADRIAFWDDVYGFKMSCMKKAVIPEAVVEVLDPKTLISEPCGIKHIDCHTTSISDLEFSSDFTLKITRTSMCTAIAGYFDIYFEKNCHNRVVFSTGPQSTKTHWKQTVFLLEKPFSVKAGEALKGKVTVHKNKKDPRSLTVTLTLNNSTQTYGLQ
UniProt Q9UGJ0: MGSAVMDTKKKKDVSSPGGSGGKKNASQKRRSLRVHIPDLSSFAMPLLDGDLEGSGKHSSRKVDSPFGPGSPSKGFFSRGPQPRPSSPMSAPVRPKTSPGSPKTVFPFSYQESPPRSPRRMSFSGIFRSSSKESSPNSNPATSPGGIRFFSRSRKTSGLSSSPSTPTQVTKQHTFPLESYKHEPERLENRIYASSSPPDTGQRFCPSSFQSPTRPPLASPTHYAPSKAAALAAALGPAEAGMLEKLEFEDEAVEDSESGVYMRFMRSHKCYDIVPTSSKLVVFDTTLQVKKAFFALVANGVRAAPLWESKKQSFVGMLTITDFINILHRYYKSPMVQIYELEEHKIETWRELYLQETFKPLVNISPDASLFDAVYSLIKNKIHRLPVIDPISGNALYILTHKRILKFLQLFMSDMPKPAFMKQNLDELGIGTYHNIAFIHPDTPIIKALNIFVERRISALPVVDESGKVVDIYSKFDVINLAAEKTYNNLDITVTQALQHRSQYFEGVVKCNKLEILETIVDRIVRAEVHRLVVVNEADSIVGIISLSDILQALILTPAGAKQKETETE

Key:
Test in all cases: log2 fold change, soluble protein after heating vs DMSO (PISA); higher = thermal stabilisation; K562 lysate, 10 uM; active = over 0.2 and 3.5 SD of the protein, either way, in both replicates (recomputed)
lapatinib = compound: CS(=O)(=O)CCNCc1ccc(-c2ccc3ncnc(Nc4ccc(OCc5cccc(F)c5)c(Cl)c4)c3c2)o1 [lapatinib]
Method in brief: (§1)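 A 30 min treatment with 10 μM compound was applied to crude K562 extract at 1 mg/mL protein in PBS pH 7.4 with 1 mM MgCl2. Heating for 3 min spanned 48°C-58°C, after which aliquots were pooled, adjusted to 0.5% NP-40 at 4°C and spun at 21,000xg for 90 min. TMTpro 16plex LC-MS/MS of the supernatant, with channel sums equalised, gave values recorded as log-two fold change in thermal stability against solvent controls, from duplicates.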

pictilisib = compound: CS(=O)(=O)N1CCN(Cc2cc3nc(-c4cccc5[nH]ncc45)nc(N4CCOCC4)c3s2)CC1 [pictilisib]
Method in brief: as §1

crizotinib = compound: C[C@@H](Oc1cc(-c2cnn(C3CCNCC3)c2)cnc1N)c1c(Cl)ccc(F)c1Cl [crizotinib]
Method in brief: as §1

[1] = compound: C[C@H](C1=CC=C(C=C1)C(=O)NC2=C3C=CNC3=NC=C2)N
Method in brief: as §1

duvelisib = compound: C[C@H](Nc1ncnc2nc[nH]c12)c1cc2cccc(Cl)c2c(=O)n1-c1ccccc1 [duvelisib]
Method in brief: as §1

gandotinib = compound: Cc1cc(Nc2cc(CN3CCOCC3)c3nc(C)c(Cc4ccc(Cl)cc4F)n3n2)n[nH]1 [gandotinib]
Method in brief: as §1

tozasertib = compound: Cc1cc(Nc2cc(N3CCN(C)CC3)nc(Sc3ccc(NC(=O)C4CC4)cc3)n2)n[nH]1 [tozasertib]
Method in brief: as §1

doramapimod = compound: Cc1ccc(-n2nc(C(C)(C)C)cc2NC(=O)Nc2ccc(OCCN3CCOCC3)c3ccccc23)cc1 [doramapimod]
Method in brief: as §1

bafetinib = compound: Cc1ccc(NC(=O)c2ccc(CN3CC[C@H](N(C)C)C3)c(C(F)(F)F)c2)cc1Nc1nccc(-c2cncnc2)n1 [bafetinib]
Method in brief: as §1

[2] = compound: Cc1cccc(CC(=O)N2CCc3c2ccc(-c2cn(C)c4ncnc(N)c24)c3F)n1
Method in brief: as §1

nilotinib = compound: Cc1cn(-c2cc(NC(=O)c3ccc(C)c(Nc4nccc(-c5cccnc5)n4)c3)cc(C(F)(F)F)c2)cn1 [nilotinib]
Method in brief: as §1

[3] = compound: Cc1nc(Nc2n[nH]c3c2CN(C(=O)N[C@H](CN(C)C)c2ccccc2)C3(C)C)c2sccc2n1
Method in brief: as §1

dasatinib = compound: Cc1nc(Nc2ncc(C(=O)Nc3c(C)cccc3Cl)s2)cc(N2CCN(CCO)CC2)n1 [dasatinib]
Method in brief: as §1

[4] = compound: Cc1ncc(-c2ccnc(Nc3ccc(S(C)(=O)=O)cc3)n2)n1C(C)C
Method in brief: as §1

[5] = compound: Cn1cc(-c2ccc3c(c2)CCN3C(=O)Cc2cccc(C(F)(F)F)c2)c2c(N)ncnc21
Method in brief: as §1

quisinostat = compound: Cn1cc(CNCC2CCN(c3ncc(C(=O)NO)cn3)CC2)c2ccccc21 [quisinostat]
Method in brief: as §1

tipifarnib = compound: Cn1cncc1[C@@](N)(c1ccc(Cl)cc1)c1ccc2c(c1)c(-c1cccc(Cl)c1)cc(=O)n2C [tipifarnib]
Method in brief: as §1

[6] = compound: NC(=O)Nc1cc(-c2cccc(F)c2)sc1C(=O)N[C@H]1CCCNC1
Method in brief: as §1

[7] = compound: NC(=O)c1cnc(N[C@@H]2CCCC[C@@H]2N)nc1Nc1cccc(-n2nccn2)c1
Method in brief: as §1

[8] = compound: NC1(c2ccc(-c3nc4ccn5c(=O)[nH]nc5c4cc3-c3ccccc3)cc2)CCC1
Method in brief: as §1

Measured: log2 fold change

PREP (UniProt P48147)
inactive: lapatinib -0.024 | pictilisib -0.013 | crizotinib -0.016 | [1] 0.009 | duvelisib 0.043 | gandotinib -0.042 | tozasertib -0.012 | doramapimod -0.001 | bafetinib -0.004 | [2] -0.01 | nilotinib 0 | [3] -0.014 | dasatinib -0.026 | [4] -0.002 | [5] 0.007 | quisinostat 0.008 | tipifarnib 0.023 | [6] 0.011 | [7] 0.006 | [8] -0.005

PPT2 isoform 3 (UniProt Q9UMR5)
inactive: lapatinib -0.053 | pictilisib -0.032 | crizotinib 0.035 | [1] 0.058 | duvelisib 0.06 | gandotinib 0.016 | tozasertib 0.004 | doramapimod 0 | bafetinib 0.005 | [2] -0.05 | nilotinib 0.01 | [3] -0.019 | dasatinib 0.006 | [4] -0.019 | [5] 0.025 | quisinostat -0.004 | tipifarnib -0.025 | [6] 0.032 | [7] 0.002 | [8] 0.02

PRKAA1 isoform 2 (UniProt Q13131)
inactive: lapatinib -0.037 | pictilisib 0.088 | crizotinib -0.019 | [1] 0 | duvelisib -0.004 | gandotinib 0.163 | tozasertib 0.165 | doramapimod -0.01 | bafetinib -0.036 | [2] -0.041 | nilotinib -0.027 | [3] 0.186 | dasatinib 0.012 | [4] 0.071 | [5] 0.012 | quisinostat -0.009 | tipifarnib -0.048 | [6] 0.15 | [7] 0.047 | [8] 0.059

PPP2R5C isoform 4 (UniProt Q13362)
inactive: lapatinib -0.05 | pictilisib 0 | crizotinib 0.015 | [1] -0.051 | duvelisib 0.213 | gandotinib -0.034 | tozasertib 0.025 | doramapimod -0.11 | bafetinib -0.077 | [2] 0.055 | nilotinib -0.012 | [3] -0.005 | dasatinib 0.031 | [4] -0.002 | [5] 0.017 | quisinostat -0.126 | tipifarnib 0.021 | [6] 0.079 | [7] -0.013 | [8] -0.04

PPIP5K2 (UniProt O43314)
inactive: lapatinib -0.009 | pictilisib -0.006 | crizotinib -0.05 | [1] 0.074 | duvelisib 0.072 | gandotinib -0.114 | tozasertib 0.022 | doramapimod -0.018 | bafetinib -0.044 | [2] -0.052 | nilotinib -0.018 | [3] -0.005 | dasatinib -0.029 | [4] 0.091 | [5] 0.005 | quisinostat -0.032 | tipifarnib 0.047 | [6] 0.114 | [7] 0.1 | [8] 0.004

PPP3R1 (UniProt P63098)
inactive: lapatinib 0.019 | pictilisib -0.002 | crizotinib -0.003 | [1] 0.006 | duvelisib 0.022 | gandotinib 0.05 | tozasertib 0.012 | doramapimod -0.088 | bafetinib 0.002 | [2] -0.119 | nilotinib 0.012 | [3] -0.006 | dasatinib -0.022 | [4] 0.04 | [5] -0.004 | quisinostat 0.028 | tipifarnib 0.017 | [6] -0.04 | [7] 0.006 | [8] 0.011

Two records drawn at random from those above, as already listed:
PPP3R1 (UniProt P63098)
inactive: lapatinib 0.019 | pictilisib -0.002 | crizotinib -0.003 | [1] 0.006 | duvelisib 0.022 | gandotinib 0.05 | tozasertib 0.012 | doramapimod -0.088 | bafetinib 0.002 | [2] -0.119 | nilotinib 0.012 | [3] -0.006 | dasatinib -0.022 | [4] 0.04 | [5] -0.004 | quisinostat 0.028 | tipifarnib 0.017 | [6] -0.04 | [7] 0.006 | [8] 0.011

PRKAA1 isoform 2 (UniProt Q13131)
inactive: lapatinib -0.037 | pictilisib 0.088 | crizotinib -0.019 | [1] 0 | duvelisib -0.004 | gandotinib 0.163 | tozasertib 0.165 | doramapimod -0.01 | bafetinib -0.036 | [2] -0.041 | nilotinib -0.027 | [3] 0.186 | dasatinib 0.012 | [4] 0.071 | [5] 0.012 | quisinostat -0.009 | tipifarnib -0.048 | [6] 0.15 | [7] 0.047 | [8] 0.059

(cont.)

PRDX6 (UniProt P30041)
inactive: lapatinib -0.018 | pictilisib 0 | crizotinib 0.012 | [1] 0.044 | duvelisib 0.013 | gandotinib -0.025 | tozasertib 0.019 | doramapimod -0.017 | bafetinib 0.027 | [2] -0.038 | nilotinib 0 | [3] -0.006 | dasatinib 0.021 | [4] -0.007 | [5] -0.021 | quisinostat 0.015 | tipifarnib 0.021 | [6] -0.008 | [7] -0.002 | [8] 0.009

PPIG (UniProt Q13427)
inactive: lapatinib 0.016 | pictilisib -0.047 | crizotinib -0.095 | [1] -0.111 | duvelisib 0.049 | gandotinib 0.01 | tozasertib 0.048 | doramapimod 0.022 | bafetinib 0.126 | [2] 0.157 | nilotinib -0.006 | [3] 0.046 | dasatinib 0.005 | [4] 0.026 | [5] 0.018 | quisinostat -0.062 | tipifarnib -0.018 | [6] -0.012 | [7] 0.027 | [8] 0.084

PPM1G (UniProt O15355)
inactive: lapatinib -0.003 | pictilisib 0.036 | crizotinib 0.043 | [1] 0.066 | duvelisib 0.006 | gandotinib -0.057 | tozasertib 0.021 | doramapimod -0.015 | bafetinib 0.024 | [2] -0.021 | nilotinib -0.011 | [3] 0.018 | dasatinib 0.002 | [4] 0.008 | [5] 0.033 | quisinostat 0.034 | tipifarnib 0.02 | [6] -0.021 | [7] 0 | [8] 0.029

PPIF (UniProt P30405)
inactive: lapatinib -0.02 | pictilisib 0.006 | crizotinib -0.055 | [1] -0.176 | duvelisib 0.013 | gandotinib 0.103 | tozasertib 0.01 | doramapimod -0.007 | bafetinib -0.011 | [2] 0.1 | nilotinib -0.021 | [3] 0.003 | dasatinib 0.023 | [4] 0.011 | [5] -0.03 | quisinostat -0.106 | tipifarnib -0.002 | [6] 0.005 | [7] 0.013 | [8] -0.069

PRPF38A (UniProt Q8NAV1)
active: [1] -0.399 | quisinostat -0.452
inactive: lapatinib -0.001 | pictilisib 0.039 | crizotinib -0.248 | duvelisib 0.03 | gandotinib 0.024 | tozasertib -0.034 | doramapimod 0.012 | bafetinib -0.055 | [2] 0.121 | nilotinib 0.076 | [3] 0.018 | dasatinib -0.055 | [4] -0.088 | [5] -0.001 | tipifarnib -0.016 | [6] 0.092 | [7] 0.003 | [8] 0.049

PPP2R5C isoform 5 (UniProt Q13362)
inactive: lapatinib -0.03 | pictilisib 0.01 | crizotinib 0.004 | [1] 0.069 | duvelisib 0.02 | gandotinib -0.08 | tozasertib 0.054 | doramapimod -0.005 | bafetinib -0.001 | [2] -0.036 | nilotinib 0.016 | [3] 0.003 | dasatinib -0.053 | [4] 0.022 | [5] -0.005 | quisinostat 0.016 | tipifarnib 0.074 | [6] 0.032 | [7] 0.059 | [8] -0.019

PPP3CC (UniProt P48454)
inactive: lapatinib -0.031 | pictilisib -0.005 | crizotinib 0.008 | [1] -0.06 | duvelisib -0.021 | gandotinib 0.017 | tozasertib -0.008 | doramapimod 0.059 | bafetinib -0.068 | [2] 0.014 | nilotinib -0.003 | [3] 0.11 | dasatinib -0.1 | [4] -0.033 | [5] 0.016 | quisinostat -0.025 | tipifarnib -0.008 | [6] -0.06 | [7] 0.053 | [8] 0.023

PRKACB isoform 2 (UniProt P22694)
inactive: lapatinib -0.063 | pictilisib -0.042 | crizotinib -0.018 | [1] 0.141 | duvelisib 0.024 | gandotinib -0.071 | tozasertib -0.001 | doramapimod -0.023 | bafetinib -0.04 | [2] -0.131 | nilotinib -0.076 | dasatinib 0.025 | [4] 0.091 | [5] -0.028 | quisinostat -0.033 | tipifarnib -0.063 | [7] 0.177 | [8] -0.025
active: [3] 0.818 | [6] 0.538

PRMT3 (UniProt O60678)
inactive: lapatinib -0.03 | pictilisib -0.026 | crizotinib -0.024 | [1] 0.007 | duvelisib -0.011 | gandotinib -0.042 | tozasertib 0.01 | doramapimod 0.023 | bafetinib 0.034 | [2] 0.005 | nilotinib 0.012 | [3] -0.029 | dasatinib -0.017 | [4] -0.008 | [5] -0.052 | quisinostat -0.056 | tipifarnib 0.011 | [6] 0.016 | [7] -0.006 | [8] 0.012

PRKAG2 (UniProt Q9UGJ0)
inactive: lapatinib -0.041 | pictilisib 0.016 | crizotinib 0.063 | [1] -0.022 | duvelisib -0.028 | gandotinib 0.056 | tozasertib 0.134 | doramapimod 0.015 | bafetinib -0.044 | [2] -0.087 | nilotinib -0.118 | [3] 0.173 | dasatinib -0.025 | [4] 0.096 | [5] 0.082 | quisinostat 0.042 | tipifarnib -0.097 | [6] 0.1 | [7] 0.06 | [8] 0.051
